# Measured values reported in the supplement of paper PMC8728848.
# This is one part of the list.
# B1: FimA (Actinomyces oris) (protein)
# chain: MHHHHHHSSGVDLGTENLYFQSNAETPNYGNIKTDATGSLVIHKHLTGGGKDIGTPTGTAQNADDKGPAVEGVVFTAYPITDINLKDPAGWDTISNLSRTGVPDSACANPAAPTLGAHQFGTPKVSPATTKEGLATITEMPVQAYLVCETTTPGDIVQKAKPFVVTIPHPNTAAGADGQWIYDVNVYPKNEAIDVDKTIQAQKLNGYGVGSLIKFPVESTAPTLDAKSFYKYFQLKDTLDERLSEVTATDVSLEGTPLQPTDYKVETKQQTVTVTFTAEGLKKIKAAPGKKVSAVFQGKVTKAGNGAITNRAQVISDTLYAEQPPTPETPPTDPENPPTSDEVISRWGDLSIKKVDTHQQGQTKAGLQGAQFQLYKAKNAYANTCSNEKEGAPIAINGQTTLTTDAQGAIDIKGLFISDSIDGADRDNQVNAMERCYVLVETKAPAGYVLPAGNGAATPVKVKAGEETTDNVTVENTKQSVPGLPLTG
# Tests used:
# Experiment in all cases: glycan array binding signal (z-score within array); higher = stronger binding
# Details in all cases: glycan notation: IUPAC condensed, linker removed
# [1] = molecular target: Gal(b1-4)GlcNAc(b1-2)Man(a1-3)[Gal(b1-4)GlcNAc(b1-2)Man(a1-6)]Man(b1-4)GlcNAc(b1-4)[Fuc(a1-6)]GlcNAc
# Outline: (§1)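 Arrays were curated from the Consortium for Functional Glycomics database, 3228 in total, and kept only where the protein sequence was available. Binding is expressed as a within-array Z-score. This score was averaged across arrays of the same protein sequence at different concentrations or buffers and across linkers, and negative values can be read as non-binding.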
# [2] = molecular target: Gal(b1-4)GlcNAc(b1-2)Man(a1-3)[Gal(b1-4)GlcNAc(b1-2)Man(a1-6)][Gal(b1-4)GlcNAc(b1-4)]Man(b1-4)GlcNAc(b1-4)[Fuc(a1-6)]GlcNAc
# Outline: as §1
# [3] = molecular target: Gal(b1-4)GlcNAc(b1-2)Man(a1-3)[Gal(b1-4)GlcNAc(b1-2)Man(a1-6)][GlcNAc(b1-4)]Man(b1-4)GlcNAc(b1-4)[Fuc(a1-6)]GlcNAc
# Outline: as §1
# [4] = molecular target: Gal(b1-4)GlcNAc(b1-2)Man(a1-3)[GlcNAc(b1-2)Man(a1-6)]Man(b1-4)GlcNAc(b1-4)GlcNAc
# Outline: as §1
# [5] = molecular target: Gal(b1-4)GlcNAc(b1-2)Man(a1-3)[GlcNAc(b1-4)][Gal(b1-4)GlcNAc(b1-2)Man(a1-6)]Man(b1-4)GlcNAc(b1-4)GlcNAc
# Outline: as §1
# [6] = molecular target: Gal(b1-4)GlcNAc(b1-2)Man(a1-3)[Man(a1-6)]Man(b1-4)GlcNAc(b1-4)GlcNAc
# Outline: as §1
# [7] = molecular target: Gal(b1-4)GlcNAc(b1-2)Man(a1-6)Man(b1-4)GlcNAc(b1-4)GlcNAc
# Outline: as §1
# [8] = molecular target: Gal(b1-4)GlcNAc(b1-2)Man(a1-6)[GlcNAc(b1-2)Man(a1-3)]Man(b1-4)GlcNAc(b1-4)GlcNAc
# Outline: as §1
# [9] = molecular target: Gal(b1-4)GlcNAc(b1-2)Man(a1-6)[Man(a1-3)]Man(b1-4)GlcNAc(b1-4)GlcNAc
# Outline: as §1
# [10] = molecular target: Gal(b1-4)GlcNAc(b1-2)[Gal(b1-4)GlcNAc(b1-4)]Man(a1-3)[Gal(b1-4)GlcNAc(b1-2)Man(a1-6)]Man(b1-4)GlcNAc(b1-4)GlcNAc
# Outline: as §1
# [11] = molecular target: Gal(b1-4)GlcNAc(b1-2)[Gal(b1-4)GlcNAc(b1-4)]Man(a1-3)[Gal(b1-4)GlcNAc(b1-2)[Gal(b1-4)GlcNAc(b1-6)]Man(a1-6)]Man(b1-4)GlcNAc(b1-4)GlcNAc
# Outline: as §1
# [12] = molecular target: Gal(b1-4)GlcNAc(b1-2)[Gal(b1-4)GlcNAc(b1-4)]Man(a1-3)[GlcNAc(b1-4)][Gal(b1-4)GlcNAc(b1-2)Man(a1-6)]Man(b1-4)GlcNAc(b1-4)GlcNAc
# Outline: as §1
# [13] = molecular target: Gal(b1-4)GlcNAc(b1-2)[Gal(b1-4)GlcNAc(b1-4)]Man(a1-3)[GlcNAc(b1-4)][Gal(b1-4)GlcNAc(b1-2)[Gal(b1-4)GlcNAc(b1-6)]Man(a1-6)]Man(b1-4)GlcNAc(b1-4)GlcNAc
# Outline: as §1
# [14] = molecular target: Gal(b1-4)GlcNAc(b1-2)[Gal(b1-4)GlcNAc(b1-6)]Man(a1-6)[Gal(b1-4)GlcNAc(b1-2)Man(a1-3)]Man(b1-4)GlcNAc(b1-4)GlcNAc
# Outline: as §1
# [15] = molecular target: Gal(b1-4)GlcNAc(b1-2)[Gal(b1-4)GlcNAc(b1-6)]Man(a1-6)[Gal(b1-4)GlcNAc(b1-2)Man(a1-3)]Man(b1-4)GlcNAc(b1-4)[Fuc(a1-6)]GlcNAc
# Outline: as §1
# [16] = molecular target: Gal(b1-4)GlcNAc(b1-2)[Gal(b1-4)GlcNAc(b1-6)]Man(a1-6)[GlcNAc(b1-4)][Gal(b1-4)GlcNAc(b1-2)Man(a1-3)]Man(b1-4)GlcNAc(b1-4)GlcNAc
# Outline: as §1
# [17] = molecular target: Gal(b1-4)GlcNAc(b1-2)[Gal(b1-4)GlcNAc(b1-6)]Man(a1-6)[GlcNAc(b1-4)][Gal(b1-4)GlcNAc(b1-2)[Gal(b1-4)GlcNAc(b1-4)]Man(a1-3)]Man(b1-4)GlcNAc(b1-4)[Fuc(a1-6)]GlcNAc
# Outline: as §1
# [18] = molecular target: Gal(b1-4)GlcNAc(b1-3)Gal(b1-3)GalNAc
# Outline: as §1
# [19] = molecular target: Gal(b1-4)GlcNAc(b1-3)Gal(b1-3)GlcNAc
# Outline: as §1
binder,measurement,setting,value
B1,glycan array binding signal (z-score),[1],-0.159
same,glycan array binding signal (z-score),[2],-0.072
same,glycan array binding signal (z-score),[3],-0.885
same,glycan array binding signal (z-score),[4],-0.871
same,glycan array binding signal (z-score),[5],-0.328
same,glycan array binding signal (z-score),[6],-0.761
same,glycan array binding signal (z-score),[7],-0.446
same,glycan array binding signal (z-score),[8],-0.044
same,glycan array binding signal (z-score),[9],0.34
same,glycan array binding signal (z-score),[10],0.629
same,glycan array binding signal (z-score),[11],-0.169
same,glycan array binding signal (z-score),[12],-0.533
same,glycan array binding signal (z-score),[13],-0.726
same,glycan array binding signal (z-score),[14],-0.384
same,glycan array binding signal (z-score),[15],-0.582
same,glycan array binding signal (z-score),[16],-0.55
same,glycan array binding signal (z-score),[17],-0.615
same,glycan array binding signal (z-score),[18],-0.855
same,glycan array binding signal (z-score),[19],-0.484

# Fetched one by one from the entries so far (2):
binder,measurement,setting,value
B1,glycan array binding signal (z-score),[1],-0.159
same,glycan array binding signal (z-score),[13],-0.726
